# Laboratory results published in article PMC12594208, “SLC25A45 is required for mitochondrial uptake of methylated amino acids and de novo carnitine biosynthesis” (Molecular Cell, 2025).
# T1: SLC25A45^R285C-FLAG (human) (UniProt Q8N413)
# T1 sequence: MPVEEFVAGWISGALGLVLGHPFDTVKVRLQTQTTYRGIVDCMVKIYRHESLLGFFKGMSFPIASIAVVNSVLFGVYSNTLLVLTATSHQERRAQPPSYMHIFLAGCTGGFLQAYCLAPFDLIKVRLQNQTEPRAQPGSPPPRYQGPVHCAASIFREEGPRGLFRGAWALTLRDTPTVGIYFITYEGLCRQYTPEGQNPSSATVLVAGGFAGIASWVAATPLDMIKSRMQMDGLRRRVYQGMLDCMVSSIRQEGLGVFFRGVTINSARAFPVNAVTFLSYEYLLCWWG
# T2: WT SLC25A45-FLAG (human) (UniProt Q8N413)
# T2 sequence: T1 sequence with C285R
# B1: TIMM8A (protein, UniProt O60220 1-97)
# chain: MDSSSSSSAAGLGAVDPQLQHFIEVETQKQRFQQLVHQMTELCWEKCMDKPGPKLDSRAEACFVNCVERFIDTSQFILNRLEQTQKSKPVFSESLSD
# B2: SLC25A13 (protein, UniProt Q9UJS0 1-675)
# chain: MAAAKVALTKRADPAELRTIFLKYASIEKNGEFFMSPNDFVTRYLNIFGESQPNPKTVELLSGVVDQTKDGLISFQEFVAFESVLCAPDALFMVAFQLFDKAGKGEVTFEDVKQVFGQTTIHQHIPFNWDSEFVQLHFGKERKRHLTYAEFTQFLLEIQLEHAKQAFVQRDNARTGRVTAIDFRDIMVTIRPHVLTPFVEECLVAAAGGTTSHQVSFSYFNGFNSLLNNMELIRKIYSTLAGTRKDVEVTKEEFVLAAQKFGQVTPMEVDILFQLADLYEPRGRMTLADIERIAPLEEGTLPFNLAEAQRQKASGDSARPVLLQVAESAYRFGLGSVAGAVGATAVYPIDLVKTRMQNQRSTGSFVGELMYKNSFDCFKKVLRYEGFFGLYRGLLPQLLGVAPEKAIKLTVNDFVRDKFMHKDGSVPLAAEILAGGCAGGSQVIFTNPLEIVKIRLQVAGEITTGPRVSALSVVRDLGFFGIYKGAKACFLRDIPFSAIYFPCYAHVKASFANEDGQVSPGSLLLAGAIAGMPAASLVTPADVIKTRLQVAARAGQTTYSGVIDCFRKILREEGPKALWKGAGARVFRSSPQFGVTLLTYELLQRWFYIDFGGVKPMGSEPVPKSRINLPAPNPDHVGGYKLAVATFAGIENKFGLYLPLFKPSVSTSKAIGGGP
# B3: SLC25A3 (protein, UniProt Q00325 50-362)
# chain: AVEEQYSCDYGSGRFFILCGLGGIISCGTTHTALVPLDLVKCRMQVDPQKYKGIFNGFSVTLKEDGVRGLAKGWAPTFLGYSMQGLCKFGFYEVFKVLYSNMLGEENTYLWRTSLYLAASASAEFFADIALAPMEAAKVRIQTQPGYANTLRDAAPKMYKEEGLKAFYKGVAPLWMRQIPYTMMKFACFERTVEALYKFVVPKPRSECSKPEQLVVTFVAGYIAGVFCAIVSHPADSVVSVLNKEKGSSASLVLKRLGFKGVWKGLFARIIMIGTLTALQWFIYDSVKVYFRLPRPPPPEMPESLKKKLGLTQ
# Molecular target: T1, SLC25A45^R285C-FLAG (human)
# Experiment: affinity purification with mass spectrometry; FLAG-IP (anti-DYKDDDDK agarose beads, 2 h, 4 °C) from 1 mg isolated mitochondria of SLC25A45 KO AsPC-1 cells expressing empty vector, SLC25A45-FLAG or SLC25A45^R285C-FLAG; digitonin lysis buffer (5 g digitonin/g protein, 25 mM Tris-HCl pH 7.5, 150 mM NaCl); on-bead digestion, label-free quantification; n = 3
row,binding,Binder
1,no binding,B1
2,binds,B2
3,binds,B3

# Molecular target: T2, WT SLC25A45-FLAG (human)
# Experiment: as above
row,binding,Binder
1,binds,B1
2,binds,B2
3,binds,B3

# Where a chain is given by its changes, count along the chain named. These are yes or no findings as the source states them, for the method shown. In cells and extracts the contact can be indirect. These calls come from enrichment with a bait or labelling near it, and not all partners need be listed. For part of these data: A no says only that the protein was not detected with the bait. Where a sequence is shown, tags or fusion partners need not be part of it.
